The assay can be described thus: qHTS Assay to Find Inhibitors of Chronic Active B-Cell Receptor Signaling. Particulars: ABC-DLBCL IkBa-CBG/CBR reporter, luminescence ratio (green luciferase fused to IkBa over red control in TMD8 lymphoma cells), 4 h. The method in brief: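 Compounds up to 46 uM were incubated four hours with TMD8 cells whose green CBG68 luciferase is fused to IkappaBalpha; red CBR luminescence normalised the signal, and concentration-effect curves were fitted to fusion, red and ratio data.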

The mark [1] stands for this setting: measured here: CBR red luminescence, cell number.

Molecules are shown by their SMILES. The list shows a part of the results. Shown are side measurements of this screen, not its main read-out; they come without a call. The list favours compounds with an active or inconclusive main result. Words in brackets tell the shape of the fitted curve; partial curves, single points and poor fits give uncertain potencies. Peptide text beside a SMILES is read from it. * marks the point of attachment. Boc = CC(C)(C)OC(=O)*

By AC50 is commonly meant the concentration giving half of the maximal activity seen.

In the case of `CC(C)C(=O)Nc1cccc(NC(=S)NC(=O)c2ccccc2Cl)c1`, the AC50 under setting [1] was 0.282 µM [falling, full curve, poor fit].

Turning to `CCCN(CCC)c1nc(N)nc(-c2cc(Cl)ccc2OC)n1`, the AC50 under setting [1] is 3.98 µM [rising, single point].

Consider `OCC1(Cc2ccccc2C(F)(F)F)CCN(Cc2ccccc2)CC1`, for which the AC50 under setting [1] was 11.2 µM [falling, partial curve, poor fit].

Turning to `Cc1ccc(NC(=O)CSc2nc3c(c(=O)[nH]2)CCC3)cc1C`, under setting [1], the AC50 is 10 µM [falling, partial curve, poor fit].

For `O=C(CSc1nnc(C2CCCCC2)o1)Nc1ccccc1Cl`, under setting [1], the AC50 was 22.4 µM [falling, single point].

As to `CCOc1ccc(OCc2cccc(C(=O)O)c2)cc1`, the AC50 under setting [1] was 0.631 µM [falling, full curve, poor fit].

With `CCCN1CCN(c2ncnc3scc(C4COc5ccccc5O4)c23)CC1` (stereo unspecified), the half-maximal activity concentration (AC50) under setting [1] was 11.2 µM [falling, partial curve, poor fit].

For `COc1ccc(CC(=O)Nc2c(C(N)=O)oc3ccccc23)cc1`, the AC50 under setting [1] was 1.26 µM [falling, partial curve, poor fit].

As for `Cc1ccc2nc(C)c(Cl)c(=O)n2c1`, under setting [1], the AC50 is 1.64 µM [falling, partial curve, poor fit].

Regarding `O=C(c1cccs1)n1nc(-c2ccccc2)nc1NCc1ccc(F)cc1`, under setting [1], the AC50 is 10.3 µM [rising, partial curve, poor fit].

On to `Cc1cc(=O)[nH]c(SCC(=O)Nc2ccc(C(=O)O)cc2)n1`, for which the AC50 under setting [1] was 18.4 µM [falling, single point].

For `Cc1cccc(N/C=C/C(=O)c2cccs2)c1C`, the AC50 under setting [1] was 29.1 µM [falling, single point].

Consider `Cc1cc2c(N=NC(=O)CCc3ccccc3)c(O)[nH]c2cc1Br`, for which, under setting [1], the AC50 was 6.51 µM [rising, partial curve, poor fit].

In the case of `CC(C)CC(NC(=O)C1CCCN1C(=O)OC(C)(C)C)C(=O)NCC(N)=O` (stereo not drawn) (Boc-Pro-Leu-Gly-NH2; configuration not given here), under setting [1], the AC50 is 29.1 µM [rising, single point].

Consider `Cc1ccccc1C(=O)NC(=S)NCCc1ccccc1`, for which the AC50 under setting [1] was 7.31 µM [falling, partial curve, poor fit].

As for `CCCn1c(C)cc(-c2csc(NC(=O)CCc3nc4ccccc4c(=O)[nH]3)n2)c1C`, under setting [1], the AC50 is 1.46 µM [rising, full curve].

In the case of `COc1ccccc1/C=C1/C(=O)N(c2ccccc2)N=C1C`, the AC50 under setting [1] was 20 µM [rising, single point].

As to `COc1cccc(C(=O)NNC(=O)Cc2ccc([N+](=O)[O-])cc2)c1`, the AC50 under setting [1] was 8.2 µM [falling, partial curve].

On to `CC(C)c1ccc(/C=N\NC(=O)c2ccc(Cn3cccn3)o2)cc1`, for which the AC50 under setting [1] was 11.6 µM [falling, partial curve].

For the compound `Oc1ccccc1/C=C/c1noc(-c2ccccc2O)n1`, the AC50 under setting [1] was 5.01 µM [falling, partial curve].

As to `CCOC(=O)c1ccc(NC(=O)Oc2cc(C)c(Cl)cc2C(C)C)cc1`, the concentration at half-maximal activity (AC50) under setting [1] was 31.6 µM [rising, single point].

In the case of `O=C(Cn1cnc([N+](=O)[O-])n1)N/N=C/c1ccc(O)cc1O`, under setting [1], the half-maximal activity concentration (AC50) was 10 µM [falling, partial curve].

Turning to `O=C(COc1ccc([N+](=O)[O-])cc1Cl)N1CCc2ccccc21`, the AC50 under setting [1] is 5.8 µM [rising, single point].

As to `CC1CCN(C(=O)Cn2cnc3c(cnn3C(C)(C)C)c2=O)CC1`, the AC50 under setting [1] is 1 µM [rising, full curve, poor fit].

For `N#CC1=C(N)Oc2n[nH]c(CSc3ccccc3)c2C12C(=O)Nc1ccccc12` (stereo unspecified), the AC50 under setting [1] was 29.1 µM [falling, single point].

With `N#C/C(=C/c1ccc(Br)o1)C(N)=S`, the AC50 under setting [1] is 8.91 µM [falling, partial curve, poor fit].

In the case of `Cc1ccsc1/C=N/NC(=O)c1cc(-c2ccncc2)nc2ccccc12`, the AC50 was 5.17 µM [rising, full curve] under setting [1] and 7.31 µM [falling, partial curve] (measured here: IkBa-CBG green luminescence).

For `Cc1ccc(NC(=O)c2cccc(C(=O)Nc3ccc(C)cc3C(=O)O)c2)c(C(=O)O)c1`, under setting [1], the half-maximal activity concentration (AC50) is 6.31 µM [falling, full curve, poor fit].

For the compound `CC(CCC(=O)O)C1CC[C@@]2(C)C3C(=O)CC4C(C)(C)C(O)CC[C@]4(C)C3C(=O)C[C@]12C` (stereo partly specified), the AC50 under setting [1] was 6.31 µM [rising, partial curve, poor fit].

Turning to `O=S(=O)(NCc1cn2ccsc2n1)c1ccc2c(c1)OCCO2`, under setting [1], the AC50 is 29.1 µM [falling, single point].

For `COc1ccc(S(=O)(=O)N2CCC(C(=O)N3CCCC3)CC2)cc1`, the AC50 under setting [1] was 17.8 µM [rising, partial curve, poor fit].

Take `COc1ccc(NC(=O)c2ccc(NCCN3C(=O)CCC3=O)c([N+](=O)[O-])c2)cc1`: the AC50 under setting [1] is 12.6 µM [falling, partial curve, poor fit].

For `C/C(=N\Nc1nc2ccccc2[nH]1)c1ccc(C)o1`, the AC50 under setting [1] is 13 µM [falling, partial curve].

As for `COC(=O)CSc1nnc(CNC(=O)Cc2ccccc2)n1-c1ccccc1OC`, the AC50 under setting [1] was 35.5 µM [falling, single point].

Regarding `Cc1cnc(NC(=O)C2CC(=O)N(c3cccc(Cl)c3)C2)s1` (stereo unspecified), the AC50 under setting [1] was 2.82 µM [rising, full curve, poor fit].

`CCOc1ccccc1Nc1nc2ccc(C)cc2n2cnnc12`: the AC50 under setting [1] is 10 µM [rising, partial curve, poor fit].

In the case of `COc1cc(OC)c(OC)cc1/C=C1\CC(C)C/C(=C\c2cc(OC)c(OC)cc2OC)C1=O` (stereo unspecified), the AC50 under setting [1] is 20 µM [falling, partial curve].

For `COc1ccc(CCNC(=O)C2CC(c3ccc([N+](=O)[O-])cc3)=NO2)cc1` (stereo unspecified), the AC50 under setting [1] was 1.26 µM [falling, full curve, poor fit].

Turning to `CN1CCN(CCCN2c3ccccc3Sc3ccc(C(F)(F)F)cc32)CC1`, the half-maximal activity concentration (AC50) under setting [1] was 12.6 µM [falling, single point].

As for `CCOC(=O)c1ccc(Oc2cn[nH]c2-c2ccc(OCC(=O)NN)cc2O)cc1`, the AC50 under setting [1] was 14.1 µM [falling, single point].

Source of the values: PubChem BioAssay AID493014 (National Center for Advancing Translational Sciences (NCATS), 2011).
